Results deposited as PubChem BioAssay AID1224830 (NIAID, 2016).

Screen: 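Genes whose knock-down alters the TNF-alpha reporter response to LPS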 (primary screen)
Cell system: human THP-1 monocytic leukaemia cells, TNF dual-luciferase reporter clone, PMA-differentiated to macrophage-like cells
Reagents: siRNA pool against human genes, 50 nM
Time to read-out: LPS for 4 h, given about 3 days after siRNA transfection
Conditions: bacterial LPS (TLR4 ligand), 10 ng/ml
Read-out: 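Ratio of firefly to renilla light, scaled to the plate median and expressed as a robust z-score per replicate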
Scale: TNF reporter robust z-score: higher = stronger TNF reporter response to LPS
Rule for the call: 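a well is active when its z-score exceeds 2.8 or falls below -1.5; control wells carry no call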
Here is one part, drawn at random, of about 18,000 reagents tested. About 2,900 of all reagents (16%) were called active. 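Calls are made per well; low scores hint the gene aids the LPS response, high scores that it dampens it.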 Unmarked entries are inactive. Repeated entries: four replicate wells of each siRNA pool.

Silencing of KIT (KIT proto-oncogene, receptor tyrosine kinase) [SID315449659] gave: TNF reporter robust z-score -1.58 (active).
KIT (KIT proto-oncogene, receptor tyrosine kinase) [SID315449659] gave TNF reporter robust z-score 0.77.
KIT (KIT proto-oncogene, receptor tyrosine kinase) [SID315449659] gave TNF reporter robust z-score -0.43.
Against KIT (KIT proto-oncogene, receptor tyrosine kinase) [SID315449659] the deposit lists TNF reporter robust z-score -0.09.
With knock-down of RIMS3 (regulating synaptic membrane exocytosis 3) [SID315453562] the results were TNF reporter robust z-score -0.57.
For RIMS3 (regulating synaptic membrane exocytosis 3) [SID315453562] the deposit lists TNF reporter robust z-score -0.38.
Silencing of RIMS3 (regulating synaptic membrane exocytosis 3) [SID315453562] resulted in: TNF reporter robust z-score -0.62.
Against RIMS3 (regulating synaptic membrane exocytosis 3) [SID315453562] the deposit lists TNF reporter robust z-score -0.48.
For ARK2C [SID315465011], the values are TNF reporter robust z-score 0.07.
Knock-down of ARK2C [SID315465011] came out at: TNF reporter robust z-score -1.53 (active).
Depletion of ARK2C [SID315465011] came out at: TNF reporter robust z-score 1.25.
ARK2C [SID315465011] showed TNF reporter robust z-score 1.65.
Depletion of CD3G (CD3 gamma subunit of T-cell receptor complex) [SID315447759] came out at: TNF reporter robust z-score -0.09.
For CD3G (CD3 gamma subunit of T-cell receptor complex) [SID315447759], the entry reads TNF reporter robust z-score 0.59.
After knock-down of CD3G (CD3 gamma subunit of T-cell receptor complex) [SID315447759], the record shows TNF reporter robust z-score -0.54.
Silencing of CD3G (CD3 gamma subunit of T-cell receptor complex) [SID315447759] gave: TNF reporter robust z-score 0.34.
Silencing of PDK1 (pyruvate dehydrogenase kinase 1) [SID315450496] resulted in: TNF reporter robust z-score 0.67.
PDK1 (pyruvate dehydrogenase kinase 1) [SID315450496] showed TNF reporter robust z-score -0.38.
For PDK1 (pyruvate dehydrogenase kinase 1) [SID315450496], the values are TNF reporter robust z-score -0.34.
With knock-down of PDK1 (pyruvate dehydrogenase kinase 1) [SID315450496] the results were TNF reporter robust z-score -1.12.
Silencing of CYP46A1 (cytochrome P450 family 46 subfamily A member 1) [SID315454404] resulted in: TNF reporter robust z-score 0.23.
Depletion of CYP46A1 (cytochrome P450 family 46 subfamily A member 1) [SID315454404] resulted in: TNF reporter robust z-score 0.25.
Knock-down of CYP46A1 (cytochrome P450 family 46 subfamily A member 1) [SID315454404] resulted in: TNF reporter robust z-score -0.17.
For CYP46A1 (cytochrome P450 family 46 subfamily A member 1) [SID315454404], the values are TNF reporter robust z-score 1.76.
Silencing of CATIP (ciliogenesis associated TTC17 interacting protein) [SID315464361] resulted in: TNF reporter robust z-score -0.54.
CATIP (ciliogenesis associated TTC17 interacting protein) [SID315464361] scored TNF reporter robust z-score 0.23.
Depletion of CATIP (ciliogenesis associated TTC17 interacting protein) [SID315464361] came out at: TNF reporter robust z-score -0.66.
ARPC4 (actin related protein 2/3 complex subunit 4) [SID315453811] scored TNF reporter robust z-score -0.52.
ARPC4 (actin related protein 2/3 complex subunit 4) [SID315453811] gave TNF reporter robust z-score 0.35.
After knock-down of ARPC4 (actin related protein 2/3 complex subunit 4) [SID315453811] the results were TNF reporter robust z-score 0.99.
With knock-down of ARPC4 (actin related protein 2/3 complex subunit 4) [SID315453811], the screen gave TNF reporter robust z-score 0.89.
VEGFC (vascular endothelial growth factor C) [SID315452112] showed TNF reporter robust z-score -0.94.
With knock-down of VEGFC (vascular endothelial growth factor C) [SID315452112], the screen gave TNF reporter robust z-score -0.01.
Against VEGFC (vascular endothelial growth factor C) [SID315452112] the deposit lists TNF reporter robust z-score -0.52.
After knock-down of VEGFC (vascular endothelial growth factor C) [SID315452112], the record shows TNF reporter robust z-score -0.17.
For LRRC8A (leucine rich repeat containing 8 VRAC subunit A) [SID315458061], the values are TNF reporter robust z-score 0.32.
For LRRC8A (leucine rich repeat containing 8 VRAC subunit A) [SID315458061] the deposit lists TNF reporter robust z-score 1.34.
For LRRC8A (leucine rich repeat containing 8 VRAC subunit A) [SID315458061], the values are TNF reporter robust z-score 0.5.
LRRC8A (leucine rich repeat containing 8 VRAC subunit A) [SID315458061] scored TNF reporter robust z-score -0.02.
Against POU3F3 (POU class 3 homeobox 3) [SID315450712], the values are TNF reporter robust z-score -0.61.
After knock-down of POU3F3 (POU class 3 homeobox 3) [SID315450712], the record shows TNF reporter robust z-score -0.79.
Against POU3F3 (POU class 3 homeobox 3) [SID315450712], the values are TNF reporter robust z-score 0.12.
For POU3F3 (POU class 3 homeobox 3) [SID315450712] the deposit lists TNF reporter robust z-score -0.5.
Silencing of IRF8 (interferon regulatory factor 8) [SID315449384] came out at: TNF reporter robust z-score 0.36.
With knock-down of IRF8 (interferon regulatory factor 8) [SID315449384] the results were TNF reporter robust z-score -0.5.
Knock-down of IRF8 (interferon regulatory factor 8) [SID315449384] gave: TNF reporter robust z-score -1.13.
Silencing of GPKOW (G-patch domain and KOW motifs) [SID315455985] resulted in: TNF reporter robust z-score -0.82.
GPKOW (G-patch domain and KOW motifs) [SID315455985] showed TNF reporter robust z-score -0.54.
For GPKOW (G-patch domain and KOW motifs) [SID315455985], the values are TNF reporter robust z-score -0.83.
With knock-down of GPKOW (G-patch domain and KOW motifs) [SID315455985], the record shows TNF reporter robust z-score -0.91.
Silencing of TRIO (trio Rho guanine nucleotide exchange factor) [SID315451975] came out at: TNF reporter robust z-score 1.03.
For TRIO (trio Rho guanine nucleotide exchange factor) [SID315451975], the entry reads TNF reporter robust z-score 0.28.
After knock-down of TRIO (trio Rho guanine nucleotide exchange factor) [SID315451975] the results were TNF reporter robust z-score 0.39.
TRIO (trio Rho guanine nucleotide exchange factor) [SID315451975] showed TNF reporter robust z-score 0.89.
After knock-down of PNRC2 (proline rich nuclear receptor coactivator 2) [SID315457729], the record shows TNF reporter robust z-score 6.86 (active).
After knock-down of PNRC2 (proline rich nuclear receptor coactivator 2) [SID315457729], the record shows TNF reporter robust z-score 1.11.
With knock-down of PNRC2 (proline rich nuclear receptor coactivator 2) [SID315457729] the results were TNF reporter robust z-score 0.82.
After knock-down of PNRC2 (proline rich nuclear receptor coactivator 2) [SID315457729] the results were TNF reporter robust z-score -0.01.
After knock-down of ZNF629 (zinc finger protein 629) [SID315455185], the screen gave TNF reporter robust z-score 0.77.
For ZNF629 (zinc finger protein 629) [SID315455185] the deposit lists TNF reporter robust z-score 1.25.
ZNF629 (zinc finger protein 629) [SID315455185] scored TNF reporter robust z-score -0.8.
Against ZNF629 (zinc finger protein 629) [SID315455185], the values are TNF reporter robust z-score -1.38.

Already shown: 3 of the entries above.
POU3F3 (POU class 3 homeobox 3) [SID315450712] → TNF reporter robust z-score: -0.61
POU3F3 (POU class 3 homeobox 3) [SID315450712] → TNF reporter robust z-score: -0.79
POU3F3 (POU class 3 homeobox 3) [SID315450712] → TNF reporter robust z-score: 0.12
